Results of single-concentration screens

Measurements from “University of Dundee, Small-Polar-MMV Screening Library” (2021), ChEMBL document CHEMBL3988442.

Each number is a percent effect as filed.
The controls that fix the scale are not given in the record; negative values are as filed.
The compounds are a random part of those screened.
Two or more numbers in one place are separate tests of the same structure; such repeats can differ widely.

A: 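Growth of Mycobacterium tuberculosis over 4 days (cholesterol / DPPC medium with tyloxapol); the read-out is not stated. Compounds at 50 µM. Direction is inferred from retests: higher values go with more growth inhibition. Size under these conditions: about 69,000 compounds, about 370 of them at 50% or above in at least one test.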
B: 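Growth of Mycobacterium tuberculosis over 3 days (7H9 medium with glucose and tyloxapol); the read-out is not stated. Concentration: 50 µM. The record gives no direction; compounds that gave an IC50 in retests scored well above the rest, so higher reads as more growth inhibition. Of about 69,000 compounds tested this way, about 760 (1.1%) reached 50% or more in at least one test.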

Compound,A,B
COc1ccc(Cn2nc(C(N)=O)ccc2=O)c(Cl)c1,-19.5%,8.988%
CC(C)NC(=O)c1cc(-c2ccc(S(C)(=O)=O)cc2)nc2c1cnn2C,-18.97%,4.21%
CC(=O)Nc1nc(CN2CCn3c(C)nnc3C2)cs1,-4.498%,-10.42%
CCOCC(=O)N1Cc2nccn2CC(CN2CCCC2)C1.O=C(O)C(F)(F)F (stereo unspecified),-35.11%,-6.358%
c1cnnc(N2CCCC2CNCc2cscn2)c1 (stereo unspecified),-9.965%,-22.64%
Oc1ccccc1CN1CCC(n2cc(-c3ccc(F)cc3)nn2)CC1,5.65%,8.86%
CC(CCNC(=O)N1CCC1)N(C)C(=O)OC(C)(C)C (stereo unspecified),-0.394%,-7.332% & -3.823%
CNc1ncccc1CN1CCCCC1c1ccnc(N)n1 (stereo unspecified),-20.61%,3.583%
O=C(NCCN1CCCCCC1=O)c1ccn(-c2ccc(F)cc2)n1,-26.73%,4.552%
CCc1nnc(N2C[C@@H](NC(C)=O)[C@H](c3ccc(C)o3)C2)s1,-2.715%,-8.868%
Oc1cc(-c2cccs2)nc(C2CCCN(CC3=CCCOC3)C2)n1 (stereo unspecified),-11.19%,-31.17%
Cc1cnn(CC2CN(Cc3csc(C(C)C)n3)CCO2)c1 (stereo unspecified),31.25%,5.582%
COCCC1(CNC(=O)NCC2CCCN(C)C2)CCC1 (stereo unspecified),-3.371%,-11.58% & 1.442%
CCN1CCN(c2ccccc2NC(=O)NCc2ccon2)CC1,-3.271%,3.831%
O=C(O)c1cc(C2CC2)nc2c(Cl)cnn12,-0.2785%,7.953%
COc1cccc(NC(=O)C(C)Cn2cc(Cl)cn2)c1 (stereo unspecified),-5.983%,6.181% & -2.856%
Cc1c(-c2cc(C(F)(F)F)nc(N3CCC(N)CC3)n2)cnn1C,-27.77%,12.62% & -26.15%
O=C1CC(c2ccccc2)C2(CCN(C(=O)c3cnccn3)CC2)N1 (stereo unspecified),-13.91%,17.84%
CN(c1ccc(CNC(=O)c2c[nH]c(=O)c(Cl)c2)cc1)C1CCCCC1,22.6%,11.04%
O=C(O)C(F)(F)F.O=C(O)C(F)(F)F.[H][C@@]12CCCO[C@]1([H])[C@H](N(C)C(C)C)CN(Cc1csc(C)n1)C2,-24.94%,-5.131% & -35.69%
CC1(C)CN(C(CNC2=NCCN2)c2ccc(Cl)cc2)CCO1.I (stereo unspecified),20.89%,20.32%
COCC1CN(C(=O)c2ccoc2C)Cc2nccn2C1 (stereo unspecified),-15.06%,-15.95%
[H][C@@]12CN(CCCc3ccccc3)C[C@]1([H])OCC(=O)N2Cc1nccn1C,6.323%,-0.6373% & -8.173%
Cc1cnn(CC2CCCN2Cc2noc(C3CC3)n2)c1 (stereo unspecified),1.337%,22.49%
CCc1[nH]c2c(CNc3cncc(C(=O)N(C)C)n3)cc(F)cc2c1C,5.168%,-14.8%
[H][C@@]12C[C@@H](NC(=O)C(C)(C)C)[C@]1([H])CN(S(=O)(=O)c1ccc(C)cc1)C2,-16.94%,4.043%
Cc1cncc(C(=O)N2CCNCC2C(=O)NCc2ccncc2)c1 (stereo unspecified),7.08% & -0.9341%,1.588% & 5.862%
O=C(O)C(F)(F)F.O=C(O)C(F)(F)F.[H][C@@]12CN(CCOCC)C[C@H](C(=O)Nc3cccnc3)[C@]1([H])CCO2,-2.724%,10.84%
Cc1ccc(OCCN(C)Cc2ccc(S(=O)(=O)N(C)C)o2)cc1,17.16%,0.1751%
O=C(C1CC=CC1)N1CC[C@@H](O)[C@H]1Cc1cccnc1,20%,24.93%
O=C(c1ccc2c(c1)OCO2)N1CCCC(Nc2ccc(F)cc2)C1 (stereo unspecified),5.341% & 3.891%,21.42%
CNC(=O)C1CCCN(C(=O)OC)C1 (stereo unspecified),-0.5312%,0.5375%
CC[C@H](C)[C@H](N)C(=O)Nc1nc(-c2cnc(N(C)C)nc2)cs1,-2.366%,-6.587%
Cc1ccc(N(C)C2CCCN(C(=O)Nc3ccc(F)cc3F)C2)cc1 (stereo unspecified),-15.85%,-13.22%
O=C(Cc1ccccc1)C1CCCN(Cc2cncn2C2CCCC2)C1 (stereo unspecified),-4.907%,22.25%
CC(=O)N1CCc2ncn(C)c2C1C(=O)N1CCCC1.O=C(O)C(F)(F)F (stereo unspecified),-1.872%,-4.789% & -8.451%
CCn1ccnc1CN(C)C1CCCN(CCc2ccccc2)C1 (stereo unspecified),-35.93%,-31.41%
[H][C@@]12CNCC[C@]1(O)CCN(CCOc1ccccc1CC)C2,-8.725%,12.71% & 23.58%
Cc1nc[nH]c1CN(Cc1ccccc1)C1CC(C)(C)NC(C)(C)C1.O=C(O)CC(O)(CC(=O)O)C(=O)O,-14.62% & -4.596%,2.712%
CCCNC(=O)CCc1ccnc2ccccc12,-0.9658%,6.182% & 4.986%
Cc1c(CCC(=O)N2CCOC(c3cnccn3)C2)cnn1C (stereo unspecified),4.124%,-0.6555%
[H][C@]12CC[C@@]3(N=C(C)N(CCOC)C3=O)[C@@]1([H])CN(C(=O)NC(C)C)C2,-38.96%,-32.8% & -8.868%
Cc1ccc(F)cc1C(=O)OCC1CCCN1C(N)=O (stereo unspecified),7.5%,18.29%
CN(C)C(=O)COC1COC2(CCN(c3cnccn3)CC2)C1.O=C(O)C(F)(F)F (stereo unspecified),14.44%,15.71% & -1.409%
O=C(O)C(F)(F)F.[H][C@]12CCC[C@@]1(COC)CN(C(=O)Cc1ccccn1)C2,-17.07%,-14.86%
CCc1nc(CN(C(C)=O)C2CCN(Cc3ccccc3F)C2)no1 (stereo unspecified),-10.97%,3.101%
O=C1CN(C(=O)C2CN(c3ccc(F)cc3)CCO2)CCN1 (stereo unspecified),-6.649% & 2.959%,-5.834%
CC1CCN(S(=O)(=O)c2cccn(CC(=O)NC3CCCC3)c2=O)CC1,-44.9%,-34.88% & -5.209%
CC1CCCCN1Cc1nc(C2CC2)no1 (stereo unspecified),-11.7% & 2.974%,-19.6%
Cc1ccc2c(c1)C(=O)NCC1(CCN(C(=O)c3cnccn3)CC1)O2,-11.86%,-5.438%
Cc1c(NCc2cccc(C#N)c2)cccc1S(=O)(=O)NC1CC1,18.58%,23.87%
CC(=O)N1CCC(c2nnc3ccc(C(=O)NCC(C)C)cn23)C1 (stereo unspecified),-11.46%,-3.938%
CC(C)Nc1nc2c(cc1C(=O)NCC1CC1)CCN(S(C)(=O)=O)CC2.O=C(O)C(F)(F)F,-22.3%,2.704% & 6.321%
Cc1ncc(C(=O)N2CCC(N3C[C@@H](C)O[C@@H](C)C3)CC2)c(=O)[nH]1,-15.39%,-30.27%
CCn1nc(C)c2c1cnn2CCNS(=O)(=O)c1cccs1,-19.48%,-39.67%
CC1c2ncc(COCC3CC3)n2CCN1C(=O)c1ccnn1C (stereo unspecified),-14.8%,0.3733%
Cc1cc(C)n(-c2cncc(N3CCN(C(=O)C(C)C)CC3)n2)n1,11.35%,13.69% & -8.274%
Cc1csc(CCNc2ccc(C#N)cc2F)n1,24.34%,17.25%
CC(NCC(F)(F)F)c1ccc(S(C)(=O)=O)c(F)c1 (stereo unspecified),-24.91%,-23.32%
O=C(c1nc(=O)[nH][nH]1)N1CCC2(CCCCC2)C1,-8.195%,0.8557%
Cc1cnc(N2CCC3(CC2)CC3CNC(=O)N(C)C)nc1 (stereo unspecified),1.023%,27.94%
O=C(O)C(F)(F)F.[H][C@@]12C[C@H](C(=O)N3CCCCO3)CN(Cc3ccc(F)cc3)[C@]1([H])CCO2,-10.94% & -9.162%,-36.04%
NC(=O)C(Nc1ccc(Cl)cc1)c1ccc(F)cc1 (stereo unspecified),14.51%,-8.58%
[H][C@@]12CCCCN(C)[C@]1([H])[C@@H](c1ccccc1)CCN2C(=O)c1ccncc1,-9.366%,14.66%
Cc1cnc2n(c1=O)CC(C(=O)Nc1ccccc1Cl)CS2 (stereo unspecified),6.548%,-3.869% & 1.371%
Cc1nc(C2CN(Cc3ccccc3C)CCO2)no1 (stereo unspecified),30.47%,14.77% & 21.06%
COc1cc(NC(=O)c2ccc(C)c(F)c2)c(C(=O)N(C)C)cc1OC,-8.801% & 2.04%,27.48%
O=C(COCC1CC1)N1CCCC(n2ccnc2)C1 (stereo unspecified),-22.74%,-0.4712%
Cc1ccc(-c2[nH][nH]c(=O)c2CCN)cc1,6.689%,11.09%
CCCNC(=O)c1cnc2n1CCCC2,15.35%,-2.607% & 1.344%
[H][C@@]12CCCN1C[C@@H](CCSC)N(Cc1cnn(CCC)c1C)C2,-10.3%,0.9104%
Cn1cc(CN2CC[C@@H](NS(C)(=O)=O)[C@@H]2Cc2cccnc2)cn1.O=C(O)C(F)(F)F.O=C(O)C(F)(F)F,-6.511%,-14.33%
O=C(c1ccnnc1)N1CCc2onc(Cn3cccn3)c2C1,-12.56%,-26.19%
O=c1ccc(-c2ccccc2F)nn1CN1CCCCCC1,-2.491%,-13.13%
Cc1ccc(O)c(C(=O)NCCCS(=O)(=O)Cc2ccccc2)c1,-4.549%,13.6%

4 of the entries, repeated:

Compound	A	B
Cc1nc(C2CN(Cc3ccccc3C)CCO2)no1 (stereo unspecified)	30.47%	14.77% & 21.06%
CCn1nc(C)c2c1cnn2CCNS(=O)(=O)c1cccs1	-19.48%	-39.67%
CCOCC(=O)N1Cc2nccn2CC(CN2CCCC2)C1.O=C(O)C(F)(F)F (stereo unspecified)	-35.11%	-6.358%
CC[C@H](C)[C@H](N)C(=O)Nc1nc(-c2cnc(N(C)C)nc2)cs1	-2.366%	-6.587%